Source: PubChem BioAssay AID504834 (National Center for Advancing Translational Sciences (NCATS), 2011)
“And” between values parts separate entries of the source, which are not always exact repeats. Equal entries are not always repeated. The whole screen tested about 320,000 compounds, of which about 22,000 (6.9%) were called active. This list was built around the results that the source calls inconclusive (neither active nor inactive); the mix of calls is not that of the screen. Calls come from the whole dose curve; as a rule, active = well fitted inhibition curve with a large enough effect; inconclusive = small, poorly fitted or top-dose-only effect, or another doubt; inactive = no such curve, though single readings can be large or run the other way. Potencies of inconclusive entries are doubtful fits and often do not repeat.

assay: Primary qHTS for delayed death inhibitors of the malarial parasite plastid, 96 hour incubation; details: P. falciparum luciferase reporter growth; series mostly up to 28.7 µM; activity change, negative = inhibition: at the top concentration
In short: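 P. falciparum expressing integrated firefly luciferase, in erythrocytes at 2% hematocrit, 0.05% parasitemia, incubated with compounds 96 h at 37 C, 5% CO2. Growth inhibition read as loss of luminescence; two-generation exposure targets delayed-death apicoplast inhibitors.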
% is set by controls: 0 for no effect and ±100 for the full control effect; potency is the fitted concentration of half-maximal effect.

For `COc1ccc(OCC(=O)N2CCN(c3nnc(-c4ccc(C)cc4)c4ccccc34)CC2)cc1`, which Potency is on record?
Its Potency is inconclusive: 3.7 µM [inhibitor, partial curve].

For `CCOC(=O)C1CCN(C(c2cccnc2)c2c(NC(=O)c3ccco3)sc(C)c2C)CC1` (stereo unspecified), which “activity change, negative = inhibition” value is on record?
The value was inactive: -4.08%.

Which Potency does the source give for `C=CCC1(CC=C)CCCN1C(=O)CC1C(=O)NCCN1Cc1ccccc1OC` (stereo unspecified) here?
Its Potency is active: 10.4 µM.

With `Cc1nc2ccc(NC(=O)CSc3nnc(C)s3)cc2[nH]1` as the molecule, how does the Potency read?
The Potency was inconclusive: 4.65 µM [inhibitor, partial curve].

For `O=C(CSc1nnc(CNc2ccc(F)cc2)n1CC1CCCO1)Nc1ccccc1` (stereo unspecified), which Potency is on record?
The Potency was inconclusive: 10.4 µM [inhibitor, partial curve, poor fit].

Which “activity change, negative = inhibition” value does the source give for `CC(=O)Nc1cccc(Oc2cnc3ccccc3n2)c1` here?
Its value is inactive: 83.1%.

Which Potency does the source give for `CC(C)(C)N1C(=O)[C@H]2[C@@H](c3ccc(Br)cc3)N3C(=O)N(c4ccccc4)C(=O)[C@@]3(Cc3ccccc3)[C@H]2C1=O` here?
Its Potency is inconclusive: 14.7 µM [inhibitor, single point].

With `CCc1ccc2c(c1)C1(C(=O)N2)N2CCCC2C(C(=O)c2ccc3ccccc3c2)C12C(=O)Nc1ccccc12` (stereo unspecified) as the molecule, how does the Potency read?
Its Potency is active: 2.33 µM.

For `COc1ccc(N(C)C(=O)c2cc3c(s2)-c2ccccc2OC3)c(OC)c1`, which Potency is on record?
Its Potency is inconclusive: 13.1 µM [inhibitor, single point].

Which Potency does the source give for `CC(=O)N1CCc2cc(S(=O)(=O)N3CCCCCC3)ccc21` here?
The Potency was inconclusive: 10.4 µM [inhibitor, single point].

Which Potency does the source give for `S=c1nc(-c2ccccc2Cl)n(Cc2cccnc2)c2c1CCCC2` here?
Its Potency is inconclusive: 18.5 µM [inhibitor, single point].

Which “activity change, negative = inhibition” value does the source give for `COc1ccccc1N/C(=N/c1nc(C)cc(C)n1)NC(C)=O` here?
The value was inactive: 18.8%.

For `CCCn1cnc2cc(NC(=O)c3cccs3)ccc21`, which “activity change, negative = inhibition” value is on record?
The value was inactive: 30.1%.

Which “activity change, negative = inhibition” value does the source give for `Cc1cc(C)c(C)c(OCCN2CC(C)OC(C)C2)c1` (stereo unspecified) here?
Its value is inactive: -0.0887%.

For `CCOC(=O)c1c(NC(C)=O)sc2c(OCC(O)CN(CC)CC)c(Br)ccc12` (stereo unspecified), which Potency is on record?
Its Potency is active: 7.38 µM.

For `CC(CCc1ccccc1)NC(=O)c1cccs1` (stereo unspecified), which Potency is on record?
The Potency was inconclusive: 18.5 µM [inhibitor, single point].

For `Cc1cc(C(=O)CSc2nnc(C3COc4ccccc4O3)n2C)c(C)n1-c1ccc(F)cc1` (stereo unspecified), which Potency is on record?
The Potency was inconclusive: 14.7 µM [inhibitor, single point].

With `COCCNC(=S)N1CCC(C(=O)c2ccc3c(c2)OCCO3)CC1` as the molecule, how does the “activity change, negative = inhibition” value read?
Its value is inactive: -14.9%.

For `Cc1ccc(C)c2sc(N3CCN(C(=O)c4ccc([N+](=O)[O-])o4)CC3)nc12`, which Potency is on record?
Its Potency is active: 0.329 µM.

For `O=C(NCc1ccccc1F)C1CCCN1C(=O)Nc1ccccc1` (stereo unspecified), which Potency is on record?
Its Potency is inconclusive: 18.5 µM [inhibitor, single point].

Which Potency does the source give for `COc1ccc(CC(=O)Nc2cccc(-c3ccc4nnc(C)n4n3)c2)cc1OC` here?
The Potency was inconclusive: 5.22 µM [inhibitor, partial curve, poor fit].

For `COCCn1c(C)cc(C2=NNC(=Nc3ccc(F)cc3)SC2)c1C`, which Potency is on record?
Its Potency is inconclusive: 7.38 µM [inhibitor, partial curve, poor fit].

With `COc1ccc(NC(=O)COC(=O)c2ccc(S(=O)(=O)N3CCCCCC3)cc2)c(OC)c1` as the molecule, how does the “activity change, negative = inhibition” value read?
The value was inactive: 2.97%.

Which “activity change, negative = inhibition” value does the source give for `CNC(=O)c1[nH]cnc1C(=O)N[C@@H](Cc1ccccc1)C(=O)OC(C)(C)C` here?
The value was inactive: -3.92%.

Which Potency does the source give for `Cc1ccc(C(=O)OCC(=O)c2c(N)n(C)c(=O)n(C)c2=O)cc1S(=O)(=O)N1CCOCC1` here?
Its Potency is inconclusive: 20.8 µM [inhibitor, single point].

For `O=C(NC(CC(=O)N1CCN(c2ccccc2O)CC1)c1ccccc1)c1ccccc1Cl` (stereo unspecified), which Potency is on record?
The Potency was inconclusive: 5.86 µM [inhibitor, partial curve].

With `CC(=O)c1cccc(NC(=O)CSc2nc(=O)n(Cc3ccccn3)c3c2CCC3)c1` as the molecule, how does the “activity change, negative = inhibition” value read?
Its value is inactive: -25%.

For `O=C(N/N=C/C=C\c1ccco1)c1cccs1`, which “activity change, negative = inhibition” value is on record?
Its value is inactive: 9.16%.

For `CCCCCCNc1c([N+](=O)[O-])c(=O)sc2ccccc12`, which “activity change, negative = inhibition” value is on record?
The value was inactive: -9.57%.

With `CCOc1ccc(NC(=O)C(=O)NCCCn2ccnc2)cc1` as the molecule, how does the “activity change, negative = inhibition” value read?
The value was inactive: 41.8%.

Which “activity change, negative = inhibition” value does the source give for `NC(=O)C1(c2ccccc2)OC1c1ccccc1` (stereo unspecified) here?
Its value is inactive: -2.95%.

With `CCN1CCN(Cc2ccc(C)cc2C)CC1` as the molecule, how does the Potency read?
The Potency was inconclusive: 18.5 µM [inhibitor, single point].

Which “activity change, negative = inhibition” value does the source give for `C=CCn1c(SCC(=O)Nc2cc(Cl)ccc2C(=O)O)nc2sc(C)c(C)c2c1=O` here?
The value was inactive: -22%.

Which Potency does the source give for `O=S(=O)(c1ccc(NC(=S)NN=C2CCCCC2)cc1)N1CCOCC1` here?
The Potency was inconclusive: 18.5 µM [inhibitor, single point].

With `CCOC(=O)N/N=C/c1ccccc1F` as the molecule, how does the “activity change, negative = inhibition” value read?
The value was inactive: 264%.

With `O=C1CC(NCc2ccncc2)C(=O)N1c1ccccc1` (stereo unspecified) as the molecule, how does the Potency read?
The Potency was inconclusive: 9.28 µM [inhibitor, single point].

For `CC(C)(C)NC(=O)N1CCN(S(=O)(=O)c2ccc3c(c2)CCC3)CC1`, which Potency is on record?
Its Potency is inconclusive: 18.5 µM [inhibitor, single point].

Which Potency does the source give for `CCN(C(=O)CCNC(=O)Cn1cnc2ccccc2c1=O)c1ccccc1F` here?
The Potency was inconclusive: 18.5 µM [inhibitor, single point].

Which Potency does the source give for `O=S(=O)(/N=C(/Nc1cccc2ccccc12)c1ccccc1)c1ccc(Br)cc1` here?
Its Potency is active: 4.15 µM.

Which Potency does the source give for `COc1ccc(/C=N/n2c(C)nc3sc(C)c(C)c3c2=O)cc1OC` here?
The Potency was inconclusive: 7.38 µM [inhibitor, partial curve].

Which “activity change, negative = inhibition” value does the source give for `COc1ccc(-n2nc(C(=O)Nc3ccc4c(c3)OCO4)c3ccccc3c2=O)cc1` here?
Its value is inactive: 2.82%.

Which Potency does the source give for `CC1(C)COC(Cn2c3ccccc3c3ccccc32)O1` (stereo unspecified) here?
The Potency was inconclusive: 13.1 µM [inhibitor, partial curve].

Which “activity change, negative = inhibition” value does the source give for `Cc1cc(/C=C2\SC(=S)NC2=O)c(C)n1-c1cccc(O)c1` here?
The value was inactive: 266%.

Which Potency does the source give for `CCC(COC(=O)c1cc(OC)c(OC)c(OC)c1)(c1ccccc1)N(C)C` (stereo unspecified) here?
The Potency was inconclusive: 13.5 µM [inhibitor, partial curve, poor fit] and inconclusive: 13.1 µM [inhibitor, single point].

For `Cc1cccc(C)c1NC(=O)c1cccc(COc2cc(Cl)ccc2Cl)c1`, which Potency is on record?
Its Potency is inconclusive: 10.4 µM [inhibitor, partial curve, poor fit].

For `Cc1cc(NC(=O)CCl)on1`, which Potency is on record?
Its Potency is inconclusive: 11.7 µM [inhibitor, partial curve, poor fit].
